Screen size: about 370,000 compounds; about 100 (0.027%) were called active. This list was built around the results that the source calls inconclusive (neither active nor inactive); the mix of calls is not that of the screen. The call rests on the fitted dose curve; in most records, active means well fitted inhibition curve with a large enough effect in the polarisation, with a control signal flat; inconclusive means small, poorly fitted or top-dose-only effect, or effect the other way, or a change in a side signal; inactive means no such curve, though single readings can be large or run the other way; the % refers to the polarisation. Potencies of inconclusive entries are doubtful fits and often do not repeat. A note “side channel” means that the fit belongs to a control or component signal, not to the main read-out.
Biological target: Transcriptional regulator ERG (Homo sapiens) (UniProt P11308)
Assay: qHTS for Small Molecule Inhibitors of the ERG Ets/DNA interaction
Conditions: fluorescence polarization, His-ERG Ets domain / labelled DNA; series mostly up to 76.9 µM
Outline: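 His-tagged ERG Ets domain (1 uM in the protein solution; 300mM KCl, 50mM Tris-HCl, 1mM EDTA, 1mM DTT, pH 7.5) received compound, then a probe mix of 5 nM fluorescein-DNA and 100nM Texas-615-DNA. Fluorescence polarization was read for both dyes.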
Potency means the concentration at half of the fitted maximal effect.

Sequences of proteins named here, by UniProt entry; tags and fusion partners are left off.
UniProt P11308, whole entry, looked up: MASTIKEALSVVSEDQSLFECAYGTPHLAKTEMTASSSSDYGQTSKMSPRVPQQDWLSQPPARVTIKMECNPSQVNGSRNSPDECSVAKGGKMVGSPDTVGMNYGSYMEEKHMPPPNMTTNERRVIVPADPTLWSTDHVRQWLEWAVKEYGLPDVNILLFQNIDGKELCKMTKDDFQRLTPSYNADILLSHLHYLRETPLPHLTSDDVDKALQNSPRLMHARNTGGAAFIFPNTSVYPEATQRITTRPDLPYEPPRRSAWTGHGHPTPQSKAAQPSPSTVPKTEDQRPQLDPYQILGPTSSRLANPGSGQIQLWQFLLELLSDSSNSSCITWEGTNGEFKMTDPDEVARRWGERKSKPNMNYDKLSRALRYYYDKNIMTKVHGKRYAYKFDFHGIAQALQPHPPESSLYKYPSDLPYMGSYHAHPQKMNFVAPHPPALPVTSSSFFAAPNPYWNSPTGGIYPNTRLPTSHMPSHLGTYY

Compound	Potency
COC(=O)c1cc(-c2ccc(Cl)cc2)n(-c2ccc(S(N)(=O)=O)cc2)n1	inconclusive: 50.1 µM [inhibitor, single point]
O=C(O)/C=C/C(=O)c1ccc(O)cc1	inactive
COc1cccc(OCc2cc(C(=O)N3CCC(c4ccncc4)CC3)no2)c1	inactive
O=S(=O)(NCCc1csc(-c2ccc(F)cc2)n1)c1ccc(Cl)cc1	inactive
Cc1ccc2oc(-c3ccc(NC(=O)CC(C)C)cc3)nc2c1	inconclusive: 0.891 µM [inhibitor, partial curve, poor fit]
CCN(CC)CCCC(C)n1c2nc(=O)[nH]c(=O)c-2nc2cc(Cl)ccc21 (configuration not stated)	active: 35.5 µM
CCCCOc1ccc(C(=O)NCCC(=O)NCCCC(=O)OCC)cc1	inconclusive: 3.98 µM [inhibitor, partial curve, poor fit]
Cc1ccc(N(CC(=O)NCc2ccccc2)C(=O)CCC(=O)Nc2nccs2)cc1	inconclusive: 8.91 µM [inhibitor, single point]
Cc1ccc2ccc(C(Nc3ccccn3)c3ccccc3)c(O)c2n1 (configuration not stated)	inactive
CN1CCC2(CC1)C1CN(C)CC=C1C(C#N)=C(N)C2(C#N)C#N (configuration not stated)	inconclusive: 31.6 µM [inhibitor, partial curve]
CCOc1ccc(C(=O)Nc2ccc3c(c2)OCCO3)cc1[N+](=O)[O-]	inactive
Cc1ccc(CNC(=O)N[C@@H](Cc2ccccc2)C(=O)O)cc1	inconclusive: 50.1 µM [inhibitor, partial curve, poor fit]
CN(C(=O)CCNC(=O)Cn1cnc2ccccc2c1=O)c1ccccc1F	inconclusive: 11.2 µM [quencher, side channel, single point]
Cc1cc2nc3ccc(=[N+](C)C)cc-3sc2cc1N	inconclusive: 22.4 µM [inhibitor, single point]
COC(=O)NNC(=O)c1ccccc1OC	inactive
CCOC(=O)C1CN(S(=O)(=O)c2cc(OC)ccc2OC)C1	inconclusive: 0.891 µM [inhibitor, partial curve, poor fit]
Cc1ccc(NC(=O)CSc2nc3ccccc3c3nc(CCn4c(C)nc5ccccc54)nn23)cc1F	inconclusive: 63.1 µM [inhibitor, single point]
O=[N+]([O-])c1ccc(NN=Cc2cccc3ccccc23)cc1	inactive
N/C(Cc1ccc([N+](=O)[O-])cc1)=N\OC(=O)COc1ccccc1Cl	inconclusive: 39.8 µM [quencher, side channel, partial curve, poor fit]
COC(=O)CSc1nnc(CNC(=O)c2ccc(S(=O)(=O)N3CCOCC3)cc2)n1C	inconclusive: 11.2 µM [inhibitor, single point]
CN(C)/C=C1\C=C2C(=O)c3ccccc3N2C1=O	inconclusive: 28.2 µM [inhibitor, partial curve, poor fit]
CCC(C(=O)NC1CCCC1)N(C(=O)Cn1nnc(-c2ccc(C)o2)n1)c1ccc(F)cc1 (configuration not stated)	inconclusive: 0.794 µM [inhibitor, full curve, poor fit]
CC1Cc2ccccc2N1CC(=O)Nc1ccc2c(c1)OCO2 (configuration not stated)	inconclusive: 28.2 µM [inhibitor, partial curve, poor fit]

Compound	Potency
COc1cccc(CN2CCCN(CC(=O)Nc3ccc4c(c3)OCCO4)S2(=O)=O)c1	inactive
COc1cc(NC(=O)c2noc(C)c2[N+](=O)[O-])c(OC)cc1Cl	inconclusive: 3.55 µM [inhibitor, single point]
CCOC(=O)c1ccc2c(c1)nc(SCC(=O)c1cc3ccccc3o1)n2CC	inconclusive: 28.2 µM [fluorescent, side channel, single point]
COc1ccc(-n2c(Cc3cccn3C)nnc2SCC(=O)Nc2nccs2)cc1	inconclusive: 50.1 µM [inhibitor, single point]
CCN(CC)c1ccc(/C=C2\CCC(/C=N/NC(=O)c3ccc(=O)n(C)c3)=C2N2CCOCC2)cc1	inactive
NC(=NCCCCCCN=C(N)/N=C(\N)Nc1ccc(Cl)cc1)/N=C(\N)Nc1ccc(Cl)cc1	inconclusive: 5.62 µM [inhibitor, single point]
Cc1cc(Br)ccc1NC(=O)CN(C)C(=O)COc1cccc2c1OC(C)(C)C2	inconclusive: 22.4 µM [inhibitor, partial curve, poor fit]
CC(C)CN1CCc2nc(Nc3ccc(F)cc3F)ncc2C1	inconclusive: 50.1 µM [inhibitor, partial curve, poor fit]
O=S(=O)(c1ccc(N2CCOCC2)c(Cl)c1)N1CCOCC1	inactive
OC1(CN2CCOCC2)C2CN3CCN(C2)CC1(c1ccccc1)C3 (configuration not stated)	inconclusive: 31.6 µM [quencher, side channel, partial curve, poor fit]
Cc1cc(C)c(NC(=O)Cn2c(=O)n(CCC(=O)N3CCc4ccccc4C3)c(=O)c3ccccc32)c(C)c1	inconclusive: 50.1 µM [inhibitor, partial curve, poor fit]
Cc1ccc(-n2cnc(N)c2C(=O)c2cccc([N+](=O)[O-])c2)cc1	inconclusive: 50.1 µM [quencher, side channel, single point]
COc1ccc(Cn2c(C(=O)O)c(CNCC(C)c3ccccc3)c3ccc(OC)cc32)cc1 (configuration not stated)	inactive
O=C(/C=C/c1cccs1)N1CCN(Cc2ccc3c(c2)OCO3)CC1	inconclusive: 12.6 µM [inhibitor, partial curve, poor fit]
O=C(C1=NN(c2ccccc2)C2C(=O)N(c3ccc(Cl)cc3)C(=O)C12)c1ccccc1 (configuration not stated)	inactive
Cc1ccc(CCNC(=O)c2sc3ncccc3c2-n2cccc2)cc1	inactive
O=C(CCCN1C(=O)/C(=C\c2cccs2)SC1=S)Nc1cccc(C(=O)O)c1	inconclusive: 25.1 µM [inhibitor, partial curve, poor fit]
COc1cccc(OC)c1C(=O)Nn1c(-c2cccs2)nc2ccccc2c1=O	inconclusive: 3.55 µM [inhibitor, partial curve, poor fit]
CC(=O)Nc1ccc(N/C=C/C(=O)c2ccc(Cl)cc2)cc1	inactive
O=C(Nc1ccccc1-c1ccccc1)C1CCCCC1	inconclusive: 11.2 µM [inhibitor, single point]
O=C(Nc1ccc(F)cc1F)NC1CC1	inconclusive: 1 µM [inhibitor, full curve, poor fit]
CC(C)c1ccc(S(=O)(=O)NCc2ccc3c(c2)OCO3)cc1	inactive
COc1ccc(NC(=O)c2ccc(OC(=S)N(C)c3ccc(OC)cc3)cc2)cc1	inactive

Reprinted at random: 4 compounds from above, in no set order.
Compound	Potency
O=C(C1=NN(c2ccccc2)C2C(=O)N(c3ccc(Cl)cc3)C(=O)C12)c1ccccc1 (configuration not stated)	inactive
O=C(Nc1ccc(F)cc1F)NC1CC1	inconclusive: 1 µM [inhibitor, full curve, poor fit]
COc1cc(NC(=O)c2noc(C)c2[N+](=O)[O-])c(OC)cc1Cl	inconclusive: 3.55 µM [inhibitor, single point]
COc1ccc(Cn2c(C(=O)O)c(CNCC(C)c3ccccc3)c3ccc(OC)cc32)cc1 (configuration not stated)	inactive

Remaining list, next part.

Compound	Potency
Cc1[nH]n2c(=O)c3c(nc2c1-c1ccc(Cl)cc1)CCC3	inactive
CS(=O)(=O)Nc1ccc(C(=O)Nc2ccc3ccccc3c2)cc1	inactive
O=c1[nH]c(C2CCCN(S(=O)(=O)c3ccccc3)C2)nc2c1nnn2Cc1ccc(OC(F)(F)F)cc1 (configuration not stated)	inactive
CCCCOc1ccc(C2C(=O)N(C3CCCCC3)CC(=O)N2CCCC)cc1 (configuration not stated)	inconclusive: 39.8 µM [fluorescent, side channel, single point]
O=C(Nc1ccc(N2CCOCC2)cc1)c1ccc2nc(-c3ccco3)c(-c3ccco3)nc2c1	inconclusive: 10 µM [inhibitor, partial curve, poor fit]
O=C(Nc1ccc(-n2cnnn2)cc1)C1CCCCC1	inconclusive: 28.2 µM [inhibitor, partial curve, poor fit]
Cc1cc(OCC(=O)Nc2ccc(S(=O)(=O)N3CCN(C)CC3)cc2)cc(C)c1Cl	inactive
COc1c2c(c(CCC(=O)O)c3c1C=CC(C)(C)O3)OC(C)(C)C=C2	inconclusive: 20 µM [inhibitor, partial curve, poor fit]
CC1(C)C=C2C(=NN(c3ccccc3)C(N)=C2C#N)CO1	inconclusive: 50.1 µM [inhibitor, single point]
COc1cc(SC)ccc1C(=O)NC(C)C	inconclusive: 126 µM [inhibitor, single point]
CCCC(=O)Nc1nc2c(C)c(Cl)ccc2s1	inconclusive: 35.5 µM [inhibitor, single point]
Cc1ccc(C(=C2C3C=CC2C2C(=O)NC(=O)C32)c2ccc(C)cc2)cc1 (configuration not stated)	inconclusive: 3.55 µM [inhibitor, partial curve, poor fit]
Cc1ccc(C(C(=O)NC2CCCC2)N(Cc2ccc(F)cc2)C(=O)c2csnn2)o1 (configuration not stated)	inactive
Cn1cc2c(=O)n(/N=C/c3ccccc3)cnc2n1	inconclusive: 1.12 µM [inhibitor, partial curve, poor fit]
O=C(Nc1ccc(Br)cc1)C1CCCN(S(=O)(=O)c2ccc(Br)s2)C1 (configuration not stated)	inactive
Cc1cc(/C=C2\NC(=S)NC2=O)c(C)n1-c1cccnc1	inactive
CC1(C)CC(=O)C2=C(C1)Nc1ccccc1NC2c1cccs1 (configuration not stated)	inconclusive: 11.2 µM [inhibitor, single point]
COc1cccc(/C=N/NC(=S)Nc2cccc(S(=O)(=O)N(C)C)c2)c1	inconclusive: 56.2 µM [inhibitor, partial curve, poor fit]
CCOC(=O)c1ncn2c1CN(C)C(=O)c1cc(F)ccc1-2	inactive
CCOC(=O)C1=C(C)c2ccccc2N(S(=O)(=O)C(F)(F)F)C1C(=O)OCC (configuration not stated)	inconclusive: 50.1 µM [inhibitor, single point]
O=S(=O)(c1ccccc1)N1CCN(c2ncnc3scc(-c4ccccc4)c23)CC1	inconclusive: 7.08 µM [inhibitor, partial curve, poor fit]

Source: PubChem BioAssay AID624246 (National Center for Advancing Translational Sciences (NCATS), 2012)
